# Assay results published in the supplement of paper PMC8728848.
# The other results are listed elsewhere or left out.
# Columns and labels:
# Experiment in all cases: glycan array binding signal (z-score within array); higher = stronger binding
# Conditions in all cases: glycan notation: IUPAC condensed, linker removed
# [1] = target: Gal(b1-4)GlcNAc(b1-2)[Gal(b1-4)GlcNAc(b1-6)]Man(a1-6)[GlcNAc(b1-4)][Gal(b1-4)GlcNAc(b1-2)Man(a1-3)]Man(b1-4)GlcNAc(b1-4)GlcNAc
# Procedure, shortened: (§1)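 From the Consortium for Functional Glycomics database, 3228 arrays were curated, keeping only those whose protein sequence was available. Binding is given as a within-array Z-score averaged across arrays sharing a protein sequence and across linkers. Negative Z-scores can be read as non-binding.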
# [2] = target: Gal(b1-4)GlcNAc(b1-2)[Gal(b1-4)GlcNAc(b1-6)]Man(a1-6)[GlcNAc(b1-4)][Gal(b1-4)GlcNAc(b1-2)[Gal(b1-4)GlcNAc(b1-4)]Man(a1-3)]Man(b1-4)GlcNAc(b1-4)[Fuc(a1-6)]GlcNAc
# Procedure, shortened: as §1
# [3] = target: Gal(b1-4)GlcNAc(b1-3)Gal(b1-3)GalNAc
# Procedure, shortened: as §1
# [4] = target: Gal(b1-4)GlcNAc(b1-3)Gal(b1-3)GlcNAc
# Procedure, shortened: as §1
# [5] = target: Gal(b1-4)GlcNAc(b1-3)Gal(b1-4)Glc
# Procedure, shortened: as §1
# [6] = target: Gal(b1-4)GlcNAc(b1-3)Gal(b1-4)GlcNAc
# Procedure, shortened: as §1
# [7] = target: Gal(b1-4)GlcNAc(b1-3)Gal(b1-4)GlcNAc(b1-2)Man(a1-3)[Gal(b1-4)GlcNAc(b1-3)Gal(b1-4)GlcNAc(b1-2)Man(a1-6)]Man(b1-4)GlcNAc(b1-4)GlcNAc
# Procedure, shortened: as §1
# [8] = target: Gal(b1-4)GlcNAc(b1-3)Gal(b1-4)GlcNAc(b1-2)Man(a1-3)[Gal(b1-4)GlcNAc(b1-3)Gal(b1-4)GlcNAc(b1-2)Man(a1-6)]Man(b1-4)GlcNAc(b1-4)[Fuc(a1-6)]GlcNAc
# Procedure, shortened: as §1
# [9] = target: Gal(b1-4)GlcNAc(b1-3)Gal(b1-4)GlcNAc(b1-2)[Gal(b1-4)GlcNAc(b1-3)Gal(b1-4)GlcNAc(b1-6)]Man(a1-6)[Gal(b1-4)GlcNAc(b1-3)Gal(b1-4)GlcNAc(b1-2)Man(a1-3)]Man(b1-4)GlcNAc(b1-4)GlcNAc
# Procedure, shortened: as §1
# [10] = target: Gal(b1-4)GlcNAc(b1-3)Gal(b1-4)GlcNAc(b1-2)[Gal(b1-4)GlcNAc(b1-3)Gal(b1-4)GlcNAc(b1-6)]Man(a1-6)[Gal(b1-4)GlcNAc(b1-3)Gal(b1-4)GlcNAc(b1-2)Man(a1-3)]Man(b1-4)GlcNAc(b1-4)[Fuc(a1-6)]GlcNAc
# Procedure, shortened: as §1
# [11] = target: Gal(b1-4)GlcNAc(b1-3)Gal(b1-4)GlcNAc(b1-3)Gal(b1-4)GlcNAc
# Procedure, shortened: as §1
# [12] = target: Gal(b1-4)GlcNAc(b1-3)Gal(b1-4)GlcNAc(b1-3)Gal(b1-4)GlcNAc(b1-2)Man(a1-3)[Gal(b1-4)GlcNAc(b1-3)Gal(b1-4)GlcNAc(b1-3)Gal(b1-4)GlcNAc(b1-2)Man(a1-6)]Man(b1-4)GlcNAc(b1-4)GlcNAc
# Procedure, shortened: as §1
# [13] = target: Gal(b1-4)GlcNAc(b1-3)Gal(b1-4)GlcNAc(b1-3)Gal(b1-4)GlcNAc(b1-2)Man(a1-3)[Gal(b1-4)GlcNAc(b1-3)Gal(b1-4)GlcNAc(b1-3)Gal(b1-4)GlcNAc(b1-2)Man(a1-6)]Man(b1-4)GlcNAc(b1-4)[Fuc(a1-6)]GlcNAc
# Procedure, shortened: as §1
# [14] = target: Gal(b1-4)GlcNAc(b1-3)Gal(b1-4)GlcNAc(b1-3)Gal(b1-4)GlcNAc(b1-2)[Gal(b1-4)GlcNAc(b1-3)Gal(b1-4)GlcNAc(b1-3)Gal(b1-4)GlcNAc(b1-6)]Man(a1-6)[Gal(b1-4)GlcNAc(b1-3)Gal(b1-4)GlcNAc(b1-3)Gal(b1-4)GlcNAc(b1-2)Man(a1-3)]Man(b1-4)GlcNAc(b1-4)[Fuc(a1-6)]GlcNAc
# Procedure, shortened: as §1
# [15] = target: Gal(b1-4)GlcNAc(b1-3)Gal(b1-4)GlcNAc(b1-3)Gal(b1-4)GlcNAc(b1-3)Gal(b1-4)GlcNAc(b1-2)Man(a1-3)[Gal(b1-4)GlcNAc(b1-3)Gal(b1-4)GlcNAc(b1-3)Gal(b1-4)GlcNAc(b1-3)Gal(b1-4)GlcNAc(b1-2)Man(a1-6)]Man(b1-4)GlcNAc(b1-4)GlcNAc
# Procedure, shortened: as §1
# [16] = target: Gal(b1-4)GlcNAc(b1-3)Gal(b1-4)GlcNAc(b1-3)Gal(b1-4)GlcNAc(b1-3)Gal(b1-4)GlcNAc(b1-2)Man(a1-3)[Gal(b1-4)GlcNAc(b1-3)Gal(b1-4)GlcNAc(b1-3)Gal(b1-4)GlcNAc(b1-3)Gal(b1-4)GlcNAc(b1-2)Man(a1-6)]Man(b1-4)GlcNAc(b1-4)[Fuc(a1-6)]GlcNAc
# Procedure, shortened: as §1
# [17] = target: Gal(b1-4)GlcNAc(b1-3)Gal(b1-4)GlcNAc(b1-3)Gal(b1-4)GlcNAc(b1-3)Gal(b1-4)GlcNAc(b1-2)[Gal(b1-4)GlcNAc(b1-3)Gal(b1-4)GlcNAc(b1-3)Gal(b1-4)GlcNAc(b1-3)Gal(b1-4)GlcNAc(b1-6)]Man(a1-6)[Gal(b1-4)GlcNAc(b1-3)Gal(b1-4)GlcNAc(b1-3)Gal(b1-4)GlcNAc(b1-3)Gal(b1-4)GlcNAc(b1-2)Man(a1-3)]Man(b1-4)GlcNAc(b1-4)[Fuc(a1-6)]GlcNAc
# Procedure, shortened: as §1
# [18] = target: Gal(b1-4)GlcNAc(b1-3)Gal(b1-4)GlcNAc(b1-3)Gal(b1-4)GlcNAc(b1-3)Gal(b1-4)GlcNAc(b1-3)Gal(b1-4)GlcNAc(b1-2)Man(a1-3)[Gal(b1-4)GlcNAc(b1-3)Gal(b1-4)GlcNAc(b1-3)Gal(b1-4)GlcNAc(b1-3)Gal(b1-4)GlcNAc(b1-3)Gal(b1-4)GlcNAc(b1-2)Man(a1-6)]Man(b1-4)GlcNAc(b1-4)GlcNAc
# Procedure, shortened: as §1
# [19] = target: Gal(b1-4)GlcNAc(b1-3)Gal(b1-4)GlcNAc(b1-3)Gal(b1-4)GlcNAc(b1-3)Gal(b1-4)GlcNAc(b1-3)Gal(b1-4)GlcNAc(b1-2)Man(a1-3)[Gal(b1-4)GlcNAc(b1-3)Gal(b1-4)GlcNAc(b1-3)Gal(b1-4)GlcNAc(b1-3)Gal(b1-4)GlcNAc(b1-3)Gal(b1-4)GlcNAc(b1-2)Man(a1-6)]Man(b1-4)GlcNAc(b1-4)[Fuc(a1-6)]GlcNAc
# Procedure, shortened: as §1
# [20] = target: Gal(b1-4)GlcNAc(b1-3)Gal(b1-4)GlcNAc(b1-3)Gal(b1-4)GlcNAc(b1-3)Gal(b1-4)GlcNAc(b1-3)Gal(b1-4)GlcNAc(b1-2)[Gal(b1-4)GlcNAc(b1-3)Gal(b1-4)GlcNAc(b1-3)Gal(b1-4)GlcNAc(b1-3)Gal(b1-4)GlcNAc(b1-3)Gal(b1-4)GlcNAc(b1-6)]Man(a1-6)[Gal(b1-4)GlcNAc(b1-3)Gal(b1-4)GlcNAc(b1-3)Gal(b1-4)GlcNAc(b1-3)Gal(b1-4)GlcNAc(b1-3)Gal(b1-4)GlcNAc(b1-2)Man(a1-3)]Man(b1-4)GlcNAc(b1-4)[Fuc(a1-6)]GlcNAc
# Procedure, shortened: as §1
# [21] = target: Gal(b1-4)GlcNAc(b1-3)Gal(b1-4)GlcNAc(b1-3)Gal(b1-4)GlcNAc(b1-3)Gal(b1-4)GlcNAc(b1-3)Gal(b1-4)GlcNAc(b1-3)Gal(b1-4)GlcNAc(b1-2)Man(a1-3)[Gal(b1-4)GlcNAc(b1-3)Gal(b1-4)GlcNAc(b1-3)Gal(b1-4)GlcNAc(b1-3)Gal(b1-4)GlcNAc(b1-3)Gal(b1-4)GlcNAc(b1-3)Gal(b1-4)GlcNAc(b1-2)Man(a1-6)]Man(b1-4)GlcNAc(b1-4)GlcNAc
# Procedure, shortened: as §1
# [22] = target: Gal(b1-4)GlcNAc(b1-3)Gal(b1-4)GlcNAc(b1-3)GalNAc
# Procedure, shortened: as §1
# [23] = target: Gal(b1-4)GlcNAc(b1-3)Gal(b1-4)GlcNAc(b1-3)[Gal(b1-4)GlcNAc(b1-3)Gal(b1-4)GlcNAc(b1-6)]GalNAc
# Procedure, shortened: as §1
binder,measurement,setting,value
Mermaid1 (Stilbonema majum) (protein) MGSSHHHHHHSSGLVPRGSHMAASGWLRSPQGTVVKLYRRSLSWSKADEFCKDVDGRLVVDRTADMHLFLIKNVLKEKKSRVWVGLRRTAPHSRTWIWSDGTRQNEDDLDANLWLRDEPNDAAGEEECALFMYSPWEKAWGLNDYLCRGGCRSYQFICEKWIR,glycan array binding signal (z-score),[1],0.087
same,glycan array binding signal (z-score),[2],-0.706
same,glycan array binding signal (z-score),[3],0.406
same,glycan array binding signal (z-score),[4],-0.151
same,glycan array binding signal (z-score),[5],-0.388
same,glycan array binding signal (z-score),[6],-0.212
same,glycan array binding signal (z-score),[7],0.312
same,glycan array binding signal (z-score),[8],0.945
same,glycan array binding signal (z-score),[9],4.04
same,glycan array binding signal (z-score),[10],0.016
same,glycan array binding signal (z-score),[11],-0.531
same,glycan array binding signal (z-score),[12],-0.367
same,glycan array binding signal (z-score),[13],1.37
same,glycan array binding signal (z-score),[14],0.548
same,glycan array binding signal (z-score),[15],0.856
same,glycan array binding signal (z-score),[16],0.477
same,glycan array binding signal (z-score),[17],-0.492
same,glycan array binding signal (z-score),[18],0.715
same,glycan array binding signal (z-score),[19],-0.28
same,glycan array binding signal (z-score),[20],2.12
same,glycan array binding signal (z-score),[21],-0.041
same,glycan array binding signal (z-score),[22],1.12
same,glycan array binding signal (z-score),[23],-0.17
